Assay results: PubChem BioAssay AID1508600 (Functional Genomics Laboratory (NCATS/FGL), 2020)
Among all 53,000 sequences or so, about 3,700 (7%) were called active.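 How the source made its calls: active means gene knockdowns whose robust z-score for IL-1 alpha signal is at least 2 or at most -2, so actives lie on both sides; inactive means the rest.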 The list shows a part of the results.

assay: Components of the Cytosolic LPS Sensing Pathway: Gene Identification via Genome-wide siRNA Screen; conditions: RAW264.7 macrophages, IL-1a HTRF, actives lie on both sides, screened at 100 nM (by protocol), cells primed 5 h with Pam3CSK4 first;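 further: robust z of the log signal after scaling to non-targeting control siRNA wells of the plate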
Outline: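 Read-out: IL-1a HTRF on supernatant, divided by plate negative-control median ×100, log-transformed and converted to robust z-score. Cells were RAW264.7 given 100 nM siRNA, Pam3CSK4-primed 5 hours, then LipidA-transfected 24 hour.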

Row | Sequence | z-score
1 | GGAAAUGUGAAAGCUCUGUTT against Ttc34 | inactive: -0.718
2 | GGUUUGGUUGAAAUUGAACTT against Smc5 | inactive: -1.16
3 | CGACAUGUAGCUCUGCAUCTT against Tmem25 | inactive: -1.05
4 | GGAAUUGAAGUCAGAGUUATT against Myoc | inactive: -0.967
5 | GGCCUGAACACACUGACAATT against Lrrcc1 | inactive: -1.47
6 | GCACAUUUUGCGAGUACUCTT against Rps18 | inactive: 0.486
7 | GCUACGAGAUUCUUGUUGCTT against Taar3 | inactive: -0.615
8 | GGAAGCUUAUAAAAAUGUGTT against Htatip2 | inactive: -1.4
9 | GGAGCGAGUAGACAUUCUGTT against Rdh13 | inactive: 1.72
10 | GGGAACAAAGCUGACCUUGTT against Rab5b | inactive: -0.319
11 | GGAACUCUGGAAUAAUCUGTT against St6galnac2 | inactive: 1.58
12 | GCUGGAGUUCAGAACAUAATT against Trav7d-6 | inactive: -0.822
13 | CGUGGAUGUGUCAUCUAUUTT against Mapk10 | inactive: 1.27
14 | GGCUCAGAUUUUGUGAUUCTT against Olfr894 | inactive: -1.44
15 | CGAUCAGUGGUAUAAACUGTT against Maats1 | inactive: -0.0818
16 | GGUAGUCAUUAUUAGGUGUTT against Mreg | inactive: 1.28
17 | GGUUUGCAUAUCUCACCCUTT against Sirt6 | active: -2.38
18 | GGUGGAAAAGCAAUUCCUUTT against Cma1 | inactive: -0.243
19 | GCUGAUCCAACUGGAAUCUTT against Cep164 | inactive: 0.61
20 | CCGGCAACAUGCGUGAAUUTT against Trpv4 | inactive: -0.506
21 | GAAAAACUGCUGUUUUGGATT against Ly6g6d | inactive: 1.87
22 | CCUCCACAUUUAUUUGCUATT against Mbtd1 | inactive: 1.23

Row | Sequence | z-score
23 | GGGAAUUUUCUCCAAAAUUTT against Cdcp3 | inactive: 1.07
24 | GGUGCAGAAUGCAAUGGAUTT against Ing3 | active: 2.51
25 | GGAUCUACAUGCUUCUCAGTT against 1700018B24Rik | inactive: -0.967
26 | GGACCUCUGUGAGGAAGUGTT against Prkcz | inactive: -1.19
27 | CGAGAUGUUUAUUCAACAUTT against Tcf23 | inactive: -0.431
28 | GGCUCCACACGAUUGUUAGTT against Gne | inactive: -0.0134
29 | GGAUCAUUGAUGUUGUCUATT against Rps8 | inactive: -0.39
30 | GGUUCAUCUGUACAAAAUCTT against Zfp110 | inactive: 0.708
31 | GGUGCUCUUAAUUCAUAUATT against Cwc25 | inactive: 0.4
32 | GCCCAUUGAGUUUGAUUCATT against Itgav | inactive: 1.57
33 | GGUCUGGAUGCUUUAGAAUTT against Fam114a1 | inactive: -0.373
34 | GGAAUUCAAGAAUGCACAGTT against Jarid2 | inactive: -0.173
35 | GGAUCACACUAGUAUUUUCTT against Sertad2 | inactive: -0.923
36 | GGAGGUCACUCUUAUCCACTT against Aifm2 | inactive: 0.229
37 | GGGUAGCCAAACAAAGACATT against Cenpt | inactive: 1.75
38 | GCUACAAUUGUCUAAAUCCTT against Slc25a20 | inactive: -0.302
39 | CCAGAACCGUUACUUAGACTT against Bet1l | inactive: -0.378
40 | GGAAGAAGAAGUGUCACUATT against Wasf2 | inactive: -0.057
41 | GGUGAAUACCAGAAGUAAATT against Slc6a8 | inactive: -0.602
42 | GGAAGCAGCCAAGAAGUUATT against Olfr259 | inactive: 0.28
43 | GGGCAGAAUCCAUUGACAATT against Chmp5 | inactive: 0.748
44 | GGAUGGUGAGAAGCUGAUCTT against Omp | inactive: 0.458

Row | Sequence | z-score
45 | CGCACCCACCAUGUUUUAUTT against Radil | inactive: 1.03
46 | CGAUCGAAUCCUUAAGUACTT against Ttll1 | inactive: -0.0193
47 | CCAUACACAACAUUCCAGATT against Slc39a11 | inactive: 0.0339
48 | GGACUUUGAAUCAUGUGAATT against Lss | inactive: -0.659
49 | CGAUCAUGAAUCCUCAAACTT against Olfr828 | inactive: -0.915
50 | CCCUGACACAGUAGCAUUUTT against Eef1a1 | inactive: -0.778
51 | GGACUUCCAGUACCUAAGGTT against Smpd2 | inactive: -0.381
52 | AGGAGCUUUGCUUAGCACUTT against Ccdc85b | inactive: -0.981
53 | GGGAAGAUUGUGCAAAUGUTT against Zfp386 | inactive: -0.535
54 | GGCCCACUUAUGAUGUACATT against Eef2 | inactive: 0.0822
55 | CGAGGCACCAGAUUUGUAATT against Klhl30 | inactive: -0.379
56 | GCUAAACAUAAAAAUCGACTT against Garre1 | inactive: -1.27
57 | GGUUUGUGGUGAACUUUCATT against Lgals9 | inactive: 0.707
58 | GGAUUGCCAUCUGUGGUGCTT against Ptgr1 | inactive: -0.719
59 | GCCCAGAAUAGACAAACCGTT against Wfdc15b | inactive: -1.95
60 | GAGUCCUUGGGACAUUCUCTT against Olfr168 | inactive: 0.428
61 | GCACCGGGCUGAACUUUACTT against Lhcgr | inactive: 0.957
62 | GGAAGAUGGAGGAGAAGAATT against Hrh3 | inactive: -1.37
63 | GGGCAACUAUCUUCAAAAATT against Nxnl2 | inactive: 0.328
64 | GGGAGAAAUACAUACACACTT against Cish | inactive: 1.46
65 | AGAACAUGGAGGUUAAGAUTT against Plk5 | inactive: -1.3
66 | GGCAUUUAGUAAAACCCUUTT against Rnf144a | active: -2.43

Taken from above:
For z-score, GGUGCAGAAUGCAAUGGAUTT against Ing3 is listed with active: 2.51
For z-score, GGAACUCUGGAAUAAUCUGTT against St6galnac2 is listed with inactive: 1.58
For z-score, GGCUCCACACGAUUGUUAGTT against Gne is listed with inactive: -0.0134
For z-score, GGAAUUGAAGUCAGAGUUATT against Myoc is listed with inactive: -0.967
For z-score, GGAAGAAGAAGUGUCACUATT against Wasf2 is listed with inactive: -0.057
For z-score, GGUAGUCAUUAUUAGGUGUTT against Mreg is listed with inactive: 1.28

(continued)

Row | Sequence | z-score
67 | CCGUAACCCAGAAAAUGUATT against Eva1a | active: -2.01
68 | GCUAAUGUGUUCAUUACAGTT against Nek7 | inactive: -0.256
69 | GCUUUAAGUACUUUAACGCTT against Ncr1 | inactive: 1.04
70 | GGAAUUCAAUCUCCUCUACTT against Popdc2 | inactive: -0.294
71 | CGUGAAAAGGAGUUUCAAGTT against Map3k21 | inactive: 1.08
72 | GCUUCCUUAUGGUUUGAACTT against Atp9a | inactive: 1.06
73 | GGGUGCAGGAAUUGGUGUUTT against Cd37 | inactive: 0.582
74 | GCGAGAUUGGUGCAAAACUTT against Grem1 | inactive: -1.43
75 | GGGCUCACAUUGUACACACTT against Nckap5 | inactive: 0.525
76 | GGGAAAGUAAGGGCUGGUUTT against Olfr317 | inactive: 0.553
77 | CCAUUGCCUACCUUGGAUGTT against Olfr492 | inactive: -0.839
78 | GGAAUAGAUUUUUUGAGUGTT against Twistnb | inactive: 0.465
79 | CCACCUAAUUUAUUGCUGUTT against Mafk | inactive: 0.745
80 | GGUGAAACUUGCACAAUAUTT against Rfwd3 | inactive: 0.137
81 | GUUGGCCAGAAUUCUGAAATT against Lyz1 | inactive: -0.555
82 | GGAUGCUAGCAAAAGGGAUTT against Bex2 | inactive: 0.597
83 | GGGAGAAGAAAUGGUUUAATT against Cd300a | inactive: 1.13
84 | CGUGACUAUUGGAGAAUUUTT against Gpr156 | inactive: 0.295
85 | GGGUAUGGUUUCAUCACUUTT against Boll | active: -2.71
86 | GGUCUGUAUCCUUAUGGCUTT against Olfr103 | inactive: -0.0493
87 | GGUUUCCUUUUUGUUCAUUTT against Dlg3 | inactive: 0.566
88 | GCAAUGUUCUCCGUAAACATT against Acss2 | inactive: 1.15

Row | Sequence | z-score
89 | GCUUGGACCAUAAAUACUGTT against Senp5 | inactive: 0.051
90 | CGACGAAUGUCCUGAACAUTT against Tmem106a | inactive: -0.193
91 | GGUAUGGCAUUUCAAACCUTT against Mff | inactive: -1.12
92 | GGCAUUGAUCCUGUCCAUGTT against Ddx11 | inactive: -1.32
93 | CCAAGGUACAAUCUAACCATT against Chmp1a | inactive: -0.407
94 | GCCACAGAAAGUGAUUGAGTT against Rbp7 | inactive: -0.418
95 | GCUAAACAUUAGGUAAAGGTT against Cyp24a1 | inactive: 0.524
96 | GGGUUUGACAGAGAGAAGATT against Atp5g2 | inactive: -0.581
97 | GAUGUACUUCUUUGUAGCUTT against Olfr398 | inactive: 1.96
98 | GGAAGAGCUCAUGAAGCUGTT against Foxi1 | inactive: -0.534
99 | GCUAGCAGGCUCAGUUUACTT against Mbd6 | inactive: 1.26
100 | GGGUUAUAAUGAAAAUCCUTT against Cabp5 | inactive: -0.341
101 | GGAGCUCGCCAAAAGGAAGTT against Cep19 | inactive: 1.97
102 | GGACUAUGAGCAGAUGAAGTT against Calcb | inactive: -0.217
103 | GGUUAAUGAGCUCUGUAAATT against Pknox1 | inactive: -0.508
104 | GGAAGUUCGCUUGGUACCGTT against Snrpb2 | inactive: -1.65
105 | GCGGAAGUAAGCUUGGAUGTT against Gatd1 | inactive: 0.505
106 | GAUGCCUUUUAUGGGUGCATT against Olfr61 | inactive: 0.0552
107 | GCGAGCUUAUAGGUUCGUGTT against Spop | inactive: 0.89
